Data taken from the supplement of paper PMC10849652.
The list shows a part of the results.

Chains of the proteins cited; added tags and fusions are not shown. Lines headed by an entry give the natural chain unless they say otherwise; changes in a name come on top.
UniProt Q9Y3R5: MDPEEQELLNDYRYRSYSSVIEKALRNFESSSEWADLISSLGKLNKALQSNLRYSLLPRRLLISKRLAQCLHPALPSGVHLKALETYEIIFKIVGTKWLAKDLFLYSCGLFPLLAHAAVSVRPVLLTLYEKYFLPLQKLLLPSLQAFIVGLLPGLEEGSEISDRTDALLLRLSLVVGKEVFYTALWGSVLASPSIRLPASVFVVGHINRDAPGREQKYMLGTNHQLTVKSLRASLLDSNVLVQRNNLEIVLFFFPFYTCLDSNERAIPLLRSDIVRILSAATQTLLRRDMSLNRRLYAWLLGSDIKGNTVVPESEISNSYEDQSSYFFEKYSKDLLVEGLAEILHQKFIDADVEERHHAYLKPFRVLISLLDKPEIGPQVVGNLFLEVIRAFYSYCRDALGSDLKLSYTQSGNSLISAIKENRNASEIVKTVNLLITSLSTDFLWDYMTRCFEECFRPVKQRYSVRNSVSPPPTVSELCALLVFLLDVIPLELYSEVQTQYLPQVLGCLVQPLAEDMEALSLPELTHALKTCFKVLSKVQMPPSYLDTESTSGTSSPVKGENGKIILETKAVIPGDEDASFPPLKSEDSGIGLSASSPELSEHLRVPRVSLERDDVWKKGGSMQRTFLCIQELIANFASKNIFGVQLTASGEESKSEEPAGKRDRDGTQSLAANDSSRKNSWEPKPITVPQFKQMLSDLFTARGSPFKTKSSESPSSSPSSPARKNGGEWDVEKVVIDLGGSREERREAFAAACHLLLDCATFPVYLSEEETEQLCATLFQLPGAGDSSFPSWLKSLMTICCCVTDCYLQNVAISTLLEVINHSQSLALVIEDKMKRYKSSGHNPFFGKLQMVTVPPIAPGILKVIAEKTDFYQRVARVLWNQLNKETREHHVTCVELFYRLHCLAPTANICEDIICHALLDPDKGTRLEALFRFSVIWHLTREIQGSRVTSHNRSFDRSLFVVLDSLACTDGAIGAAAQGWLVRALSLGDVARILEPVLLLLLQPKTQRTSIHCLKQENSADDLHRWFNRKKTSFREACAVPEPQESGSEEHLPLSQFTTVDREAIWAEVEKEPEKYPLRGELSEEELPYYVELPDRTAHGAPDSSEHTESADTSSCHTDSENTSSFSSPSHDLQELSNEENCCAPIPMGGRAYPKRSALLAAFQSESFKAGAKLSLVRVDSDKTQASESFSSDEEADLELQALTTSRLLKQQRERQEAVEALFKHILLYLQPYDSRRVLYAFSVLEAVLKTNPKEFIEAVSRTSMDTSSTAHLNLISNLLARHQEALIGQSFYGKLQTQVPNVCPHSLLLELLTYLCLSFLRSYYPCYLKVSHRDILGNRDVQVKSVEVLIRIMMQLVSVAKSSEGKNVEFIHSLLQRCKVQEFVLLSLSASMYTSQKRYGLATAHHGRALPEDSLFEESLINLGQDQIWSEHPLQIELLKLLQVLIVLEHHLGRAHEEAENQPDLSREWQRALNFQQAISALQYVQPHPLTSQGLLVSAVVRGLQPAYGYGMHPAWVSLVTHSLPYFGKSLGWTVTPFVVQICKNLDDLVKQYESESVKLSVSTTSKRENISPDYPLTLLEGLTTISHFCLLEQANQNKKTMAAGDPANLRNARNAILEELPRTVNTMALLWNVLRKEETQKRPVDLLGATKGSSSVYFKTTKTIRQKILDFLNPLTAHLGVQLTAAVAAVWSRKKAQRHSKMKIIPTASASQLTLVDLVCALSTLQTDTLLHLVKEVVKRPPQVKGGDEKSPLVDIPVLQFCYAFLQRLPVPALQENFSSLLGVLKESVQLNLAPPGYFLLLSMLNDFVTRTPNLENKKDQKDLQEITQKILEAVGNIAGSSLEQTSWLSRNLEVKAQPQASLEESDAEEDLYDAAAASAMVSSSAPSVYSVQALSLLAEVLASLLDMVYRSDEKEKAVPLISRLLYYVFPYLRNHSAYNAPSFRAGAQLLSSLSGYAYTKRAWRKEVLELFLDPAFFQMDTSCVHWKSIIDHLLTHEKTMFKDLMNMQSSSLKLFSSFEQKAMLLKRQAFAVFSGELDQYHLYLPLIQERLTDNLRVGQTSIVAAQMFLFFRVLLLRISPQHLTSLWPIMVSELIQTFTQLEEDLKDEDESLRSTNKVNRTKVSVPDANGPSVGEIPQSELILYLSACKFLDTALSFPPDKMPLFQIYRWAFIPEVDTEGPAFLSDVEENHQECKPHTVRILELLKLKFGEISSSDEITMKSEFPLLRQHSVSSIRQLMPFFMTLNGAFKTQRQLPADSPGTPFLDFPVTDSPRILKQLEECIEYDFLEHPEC
UniProt O95905: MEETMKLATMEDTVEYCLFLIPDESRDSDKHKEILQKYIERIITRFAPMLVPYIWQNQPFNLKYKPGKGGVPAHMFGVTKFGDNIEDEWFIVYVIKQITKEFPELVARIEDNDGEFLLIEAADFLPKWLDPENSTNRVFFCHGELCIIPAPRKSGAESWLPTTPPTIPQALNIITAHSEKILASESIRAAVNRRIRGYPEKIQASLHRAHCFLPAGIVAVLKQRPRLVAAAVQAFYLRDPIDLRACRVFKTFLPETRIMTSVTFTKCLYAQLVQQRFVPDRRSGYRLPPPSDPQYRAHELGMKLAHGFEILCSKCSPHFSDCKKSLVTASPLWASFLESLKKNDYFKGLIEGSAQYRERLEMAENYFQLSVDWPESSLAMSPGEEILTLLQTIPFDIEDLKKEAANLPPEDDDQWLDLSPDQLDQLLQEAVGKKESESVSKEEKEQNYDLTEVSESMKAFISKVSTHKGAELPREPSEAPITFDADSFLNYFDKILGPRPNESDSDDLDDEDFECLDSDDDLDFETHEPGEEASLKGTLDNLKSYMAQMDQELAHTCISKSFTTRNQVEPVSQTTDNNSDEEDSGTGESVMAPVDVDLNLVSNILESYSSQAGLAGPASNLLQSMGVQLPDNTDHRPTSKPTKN
UniProt Q56P03: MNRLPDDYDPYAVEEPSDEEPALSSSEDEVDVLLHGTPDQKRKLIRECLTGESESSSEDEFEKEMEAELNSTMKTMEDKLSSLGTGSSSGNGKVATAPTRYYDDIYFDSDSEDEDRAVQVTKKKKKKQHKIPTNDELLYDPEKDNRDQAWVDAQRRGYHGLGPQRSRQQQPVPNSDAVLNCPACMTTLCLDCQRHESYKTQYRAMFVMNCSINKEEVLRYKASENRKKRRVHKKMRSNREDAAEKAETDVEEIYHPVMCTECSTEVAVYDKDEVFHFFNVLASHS
UniProt Q9Y2G8: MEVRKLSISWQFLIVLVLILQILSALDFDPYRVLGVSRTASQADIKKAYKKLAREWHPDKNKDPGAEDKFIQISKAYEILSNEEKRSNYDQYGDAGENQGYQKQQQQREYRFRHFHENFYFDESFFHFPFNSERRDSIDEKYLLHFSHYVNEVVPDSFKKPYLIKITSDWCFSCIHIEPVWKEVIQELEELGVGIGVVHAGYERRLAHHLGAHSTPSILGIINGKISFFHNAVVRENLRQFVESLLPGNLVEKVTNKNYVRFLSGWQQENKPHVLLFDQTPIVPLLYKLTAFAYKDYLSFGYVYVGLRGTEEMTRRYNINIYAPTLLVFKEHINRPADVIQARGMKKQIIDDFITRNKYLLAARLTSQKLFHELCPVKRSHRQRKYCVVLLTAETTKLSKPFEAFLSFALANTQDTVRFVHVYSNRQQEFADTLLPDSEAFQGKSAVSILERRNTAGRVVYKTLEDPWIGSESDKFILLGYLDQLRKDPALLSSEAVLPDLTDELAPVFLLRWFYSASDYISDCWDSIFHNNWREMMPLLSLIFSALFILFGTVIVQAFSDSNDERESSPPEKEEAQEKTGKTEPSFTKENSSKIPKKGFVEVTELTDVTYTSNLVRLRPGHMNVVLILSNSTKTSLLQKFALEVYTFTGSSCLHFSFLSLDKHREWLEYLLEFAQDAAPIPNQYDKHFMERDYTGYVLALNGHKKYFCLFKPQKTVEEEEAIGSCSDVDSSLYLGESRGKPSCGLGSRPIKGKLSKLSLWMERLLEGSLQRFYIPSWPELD
UniProt P63172, whole entry, looked up: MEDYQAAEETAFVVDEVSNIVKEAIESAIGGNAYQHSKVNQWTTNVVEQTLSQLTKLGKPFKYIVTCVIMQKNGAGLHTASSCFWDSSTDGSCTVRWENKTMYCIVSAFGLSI
UniProt Q99956: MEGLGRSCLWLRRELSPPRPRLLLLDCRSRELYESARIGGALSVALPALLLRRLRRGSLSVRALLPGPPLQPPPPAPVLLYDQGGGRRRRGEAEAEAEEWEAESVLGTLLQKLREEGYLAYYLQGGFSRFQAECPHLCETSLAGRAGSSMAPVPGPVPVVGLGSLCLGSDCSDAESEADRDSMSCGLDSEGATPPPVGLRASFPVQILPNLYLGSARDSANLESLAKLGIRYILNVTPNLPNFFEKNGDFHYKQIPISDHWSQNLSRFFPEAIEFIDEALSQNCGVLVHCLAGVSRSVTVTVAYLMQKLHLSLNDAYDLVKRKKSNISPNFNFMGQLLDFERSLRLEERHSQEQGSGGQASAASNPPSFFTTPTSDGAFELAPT
UniProt Q9NYP3: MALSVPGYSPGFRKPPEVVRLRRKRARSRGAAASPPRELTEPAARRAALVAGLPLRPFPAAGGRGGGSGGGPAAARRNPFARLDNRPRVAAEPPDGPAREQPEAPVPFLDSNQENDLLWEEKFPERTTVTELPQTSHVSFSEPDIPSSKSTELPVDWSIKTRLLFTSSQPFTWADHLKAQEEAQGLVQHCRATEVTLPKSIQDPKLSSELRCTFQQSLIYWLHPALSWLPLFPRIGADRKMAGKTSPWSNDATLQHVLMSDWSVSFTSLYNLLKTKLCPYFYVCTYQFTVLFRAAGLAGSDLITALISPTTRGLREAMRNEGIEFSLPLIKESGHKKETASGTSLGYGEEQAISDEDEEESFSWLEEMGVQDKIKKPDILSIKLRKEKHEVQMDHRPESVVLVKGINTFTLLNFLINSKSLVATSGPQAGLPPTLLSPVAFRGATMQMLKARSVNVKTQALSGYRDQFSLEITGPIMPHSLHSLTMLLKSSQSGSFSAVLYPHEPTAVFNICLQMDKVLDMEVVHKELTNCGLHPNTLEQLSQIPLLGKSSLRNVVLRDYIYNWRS
UniProt Q96FX2: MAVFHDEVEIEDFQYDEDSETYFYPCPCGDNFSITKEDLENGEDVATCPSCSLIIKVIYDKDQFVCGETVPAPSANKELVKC
UniProt Q6UX65: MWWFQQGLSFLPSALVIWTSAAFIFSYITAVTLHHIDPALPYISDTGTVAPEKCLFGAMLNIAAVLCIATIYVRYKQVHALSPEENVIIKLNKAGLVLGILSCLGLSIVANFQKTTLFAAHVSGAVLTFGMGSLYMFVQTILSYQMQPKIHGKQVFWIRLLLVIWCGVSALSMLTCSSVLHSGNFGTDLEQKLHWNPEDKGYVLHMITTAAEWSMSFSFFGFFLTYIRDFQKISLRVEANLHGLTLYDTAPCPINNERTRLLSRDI
UniProt Q86YN1: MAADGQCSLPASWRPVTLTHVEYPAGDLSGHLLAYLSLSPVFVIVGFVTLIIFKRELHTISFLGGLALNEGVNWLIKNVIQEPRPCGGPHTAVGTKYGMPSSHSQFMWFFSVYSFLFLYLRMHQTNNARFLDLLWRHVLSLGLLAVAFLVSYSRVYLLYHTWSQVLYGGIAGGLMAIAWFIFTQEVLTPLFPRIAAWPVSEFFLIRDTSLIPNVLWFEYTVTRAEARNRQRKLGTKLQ
UniProt Q9H410: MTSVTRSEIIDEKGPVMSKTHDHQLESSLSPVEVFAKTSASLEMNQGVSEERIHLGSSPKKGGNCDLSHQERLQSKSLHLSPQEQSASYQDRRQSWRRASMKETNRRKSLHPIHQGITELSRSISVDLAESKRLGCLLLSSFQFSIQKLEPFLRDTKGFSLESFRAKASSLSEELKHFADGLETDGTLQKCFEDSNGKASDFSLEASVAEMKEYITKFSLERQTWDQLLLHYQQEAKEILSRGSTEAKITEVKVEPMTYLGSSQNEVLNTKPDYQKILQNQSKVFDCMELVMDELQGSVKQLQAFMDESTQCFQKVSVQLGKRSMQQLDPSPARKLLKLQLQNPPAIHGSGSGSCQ
UniProt Q9H1X3: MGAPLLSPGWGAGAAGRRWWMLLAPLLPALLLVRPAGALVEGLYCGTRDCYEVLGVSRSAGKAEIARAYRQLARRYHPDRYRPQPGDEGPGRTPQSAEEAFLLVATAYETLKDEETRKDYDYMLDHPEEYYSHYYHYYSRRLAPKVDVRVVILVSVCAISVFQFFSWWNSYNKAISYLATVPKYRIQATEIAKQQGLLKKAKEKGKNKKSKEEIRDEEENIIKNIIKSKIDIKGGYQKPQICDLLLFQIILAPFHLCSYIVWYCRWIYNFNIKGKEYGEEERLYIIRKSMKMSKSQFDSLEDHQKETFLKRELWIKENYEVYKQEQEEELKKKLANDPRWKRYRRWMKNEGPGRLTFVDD
UniProt Q6P3W2: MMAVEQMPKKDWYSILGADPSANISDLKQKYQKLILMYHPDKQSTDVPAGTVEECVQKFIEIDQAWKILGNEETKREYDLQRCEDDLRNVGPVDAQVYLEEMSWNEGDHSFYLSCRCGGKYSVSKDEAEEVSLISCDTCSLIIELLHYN

These targets were tested with CC1=C(C(CC(=O)N1)C2=CC=C(C=C2)C(F)(F)F)C(=O)NC3=C(C=C4C(=C3)C=NN4)F (assay: log2 fold change, soluble protein after heating vs DMSO (PISA); higher = thermal stabilisation; K562 cells, 10 uM, 30 min; active = over 0.2 and 3.5 SD of the protein, either way, in both replicates (recomputed)).
Method in brief: (§1)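 Aliquots of K562 cells (2×10^6 cells/mL) treated with 10 μM compound for 30 min were heated for 3 min over 48°C-58°C. After pooling and extraction in PBS with 0.5% NP-40 at 4°C, soluble protein from a 21,000xg, 90 min spin was quantified by TMTpro 16plex LC-MS/MS with channel sums equalised. Thermal stability is expressed against control samples, from duplicates, as a log2 fold change.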

Target	log2 fold change
DOP1B (UniProt Q9Y3R5)	inactive: -0.049
E2F3 (UniProt O00716)	inactive: -0.027
ECD isoform 3 (UniProt O95905)	inactive: -0.017
EAPP (UniProt Q56P03)	inactive: 0.023
DTD2 (UniProt Q96FN9)	inactive: 0.059
DNAJC16 (UniProt Q9Y2G8)	inactive: 0.008
DYNLT1 (UniProt P63172)	inactive: -0.099
DNM1L isoform 2 (UniProt O00429)	inactive: 0.018
DUSP9 (UniProt Q99956)	inactive: 0.201
DOCK10 (UniProt Q96BY6)	inactive: 0.108
DONSON (UniProt Q9NYP3)	inactive: 0.096
DPH3 (UniProt Q96FX2)	inactive: -0.022
DOK1 (UniProt Q99704)	inactive: -0.028
ECHDC3 (UniProt Q96DC8)	inactive: -0.23
DYM (UniProt Q7RTS9)	inactive: -0.071
DPY19L2 (UniProt Q6NUT2)	inactive: 0.079

These targets were tested with CC1=C(C2=C(C=C1)C(=O)C3=CC=CC=C3N2CCCN)C in the same assay as above.
Method in brief: as §1

Target	log2 fold change
DOP1B (UniProt Q9Y3R5)	inactive: 0.085
E2F3 (UniProt O00716)	inactive: -0.123
DYNC1I2 isoform 2 (UniProt Q13409)	inactive: -0.05
ECD isoform 3 (UniProt O95905)	inactive: 0.062
DRAM2 (UniProt Q6UX65)	inactive: 0.041
E4F1 (UniProt Q66K89)	inactive: -0.033
EAPP (UniProt Q56P03)	inactive: 0.144
DNTTIP2 (UniProt Q5QJE6)	active: -0.975
DOCK8 (UniProt Q8NF50)	inactive: -0.121
DOLPP1 (UniProt Q86YN1)	inactive: 0.036
DNPEP (UniProt B9ZVU2)	inactive: -0.021
DSN1 (UniProt Q9H410)	inactive: -0.045
DNAJC25 (UniProt Q9H1X3)	inactive: 0.205
DTD2 (UniProt Q96FN9)	inactive: -0.018
DNAJC16 (UniProt Q9Y2G8)	inactive: -0.038
DYRK1A isoform 2 (UniProt Q13627)	inactive: 0.144
DYNLT1 (UniProt P63172)	inactive: -0.045
DNM1L isoform 2 (UniProt O00429)	inactive: 0.066
DTWD2 (UniProt Q8NBA8)	inactive: -0.004
DOCK10 (UniProt Q96BY6)	inactive: -0.151
DONSON (UniProt Q9NYP3)	inactive: -0.083
DPH3 (UniProt Q96FX2)	inactive: 0.076
DOK1 (UniProt Q99704)	inactive: -0.007
DNAJC24 (UniProt Q6P3W2)	inactive: -0.023
DPYSL2 (UniProt Q16555)	inactive: 0.01
ECHDC3 (UniProt Q96DC8)	inactive: 0.245
DYM (UniProt Q7RTS9)	inactive: 0.154
DNPEP (UniProt C9JBE1)	inactive: 0.199
DPY19L2 (UniProt Q6NUT2)	inactive: 0.111
